These results are taken from the supplement of paper PMC10849652.

Sequences of proteins named here, by UniProt entry; tags and fusion partners are left off. A change or cut given only in a name is not applied to a line headed by its entry.
UniProt Q8TCT8: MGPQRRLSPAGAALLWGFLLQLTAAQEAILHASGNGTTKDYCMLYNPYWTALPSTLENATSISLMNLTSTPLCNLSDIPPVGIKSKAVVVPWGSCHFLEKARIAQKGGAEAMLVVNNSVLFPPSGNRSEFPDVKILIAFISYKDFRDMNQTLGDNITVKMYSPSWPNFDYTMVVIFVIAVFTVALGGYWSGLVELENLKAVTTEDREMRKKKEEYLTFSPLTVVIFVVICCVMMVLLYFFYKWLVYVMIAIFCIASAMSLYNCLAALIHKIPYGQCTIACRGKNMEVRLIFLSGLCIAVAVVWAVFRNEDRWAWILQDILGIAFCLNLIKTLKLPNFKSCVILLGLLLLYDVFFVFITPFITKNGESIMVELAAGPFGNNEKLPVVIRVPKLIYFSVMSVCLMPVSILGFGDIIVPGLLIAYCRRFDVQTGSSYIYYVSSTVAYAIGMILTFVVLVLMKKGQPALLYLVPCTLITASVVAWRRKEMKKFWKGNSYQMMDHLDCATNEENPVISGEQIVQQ
UniProt Q08945, whole entry, looked up: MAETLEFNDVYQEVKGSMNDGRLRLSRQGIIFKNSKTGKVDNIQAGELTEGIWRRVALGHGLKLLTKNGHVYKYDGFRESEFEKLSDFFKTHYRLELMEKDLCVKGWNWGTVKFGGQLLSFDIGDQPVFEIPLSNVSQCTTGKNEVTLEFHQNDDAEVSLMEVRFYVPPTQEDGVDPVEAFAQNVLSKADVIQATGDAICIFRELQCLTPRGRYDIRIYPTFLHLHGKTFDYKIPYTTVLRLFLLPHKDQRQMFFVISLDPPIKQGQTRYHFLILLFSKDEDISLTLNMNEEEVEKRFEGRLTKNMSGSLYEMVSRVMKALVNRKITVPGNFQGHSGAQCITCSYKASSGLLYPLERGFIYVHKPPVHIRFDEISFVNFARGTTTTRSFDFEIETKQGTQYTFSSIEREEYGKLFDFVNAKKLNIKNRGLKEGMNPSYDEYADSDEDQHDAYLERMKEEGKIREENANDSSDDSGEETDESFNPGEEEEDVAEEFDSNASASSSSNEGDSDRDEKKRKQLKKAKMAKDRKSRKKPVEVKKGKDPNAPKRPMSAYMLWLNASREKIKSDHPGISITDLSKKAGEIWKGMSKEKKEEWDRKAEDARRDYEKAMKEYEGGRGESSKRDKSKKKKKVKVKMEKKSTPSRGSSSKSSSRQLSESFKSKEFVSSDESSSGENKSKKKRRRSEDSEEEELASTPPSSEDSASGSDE
UniProt O15269: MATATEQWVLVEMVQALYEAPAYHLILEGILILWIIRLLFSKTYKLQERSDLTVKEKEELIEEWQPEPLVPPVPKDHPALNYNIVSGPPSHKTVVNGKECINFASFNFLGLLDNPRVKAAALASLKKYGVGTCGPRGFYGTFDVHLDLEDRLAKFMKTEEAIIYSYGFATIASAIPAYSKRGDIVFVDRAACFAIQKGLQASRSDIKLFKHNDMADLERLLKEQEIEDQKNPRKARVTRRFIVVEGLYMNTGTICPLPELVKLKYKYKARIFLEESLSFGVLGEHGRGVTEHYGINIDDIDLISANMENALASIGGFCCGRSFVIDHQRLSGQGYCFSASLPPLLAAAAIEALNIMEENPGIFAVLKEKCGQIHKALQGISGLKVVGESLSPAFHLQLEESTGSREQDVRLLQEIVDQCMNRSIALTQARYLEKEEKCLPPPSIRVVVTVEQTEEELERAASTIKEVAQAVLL
UniProt Q9Y6E0: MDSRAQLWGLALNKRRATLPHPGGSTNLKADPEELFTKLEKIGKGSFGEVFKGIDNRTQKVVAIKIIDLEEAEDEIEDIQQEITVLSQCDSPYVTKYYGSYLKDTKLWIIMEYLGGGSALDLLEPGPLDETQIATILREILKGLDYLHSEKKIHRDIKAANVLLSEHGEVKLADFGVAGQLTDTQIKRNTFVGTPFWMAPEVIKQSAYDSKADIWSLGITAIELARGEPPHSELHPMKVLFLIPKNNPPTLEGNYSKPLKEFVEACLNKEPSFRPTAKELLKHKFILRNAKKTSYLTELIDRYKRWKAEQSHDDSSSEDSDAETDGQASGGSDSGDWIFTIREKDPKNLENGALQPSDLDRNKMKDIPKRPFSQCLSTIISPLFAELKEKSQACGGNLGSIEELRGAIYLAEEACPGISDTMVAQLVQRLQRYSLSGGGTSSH
UniProt O75494: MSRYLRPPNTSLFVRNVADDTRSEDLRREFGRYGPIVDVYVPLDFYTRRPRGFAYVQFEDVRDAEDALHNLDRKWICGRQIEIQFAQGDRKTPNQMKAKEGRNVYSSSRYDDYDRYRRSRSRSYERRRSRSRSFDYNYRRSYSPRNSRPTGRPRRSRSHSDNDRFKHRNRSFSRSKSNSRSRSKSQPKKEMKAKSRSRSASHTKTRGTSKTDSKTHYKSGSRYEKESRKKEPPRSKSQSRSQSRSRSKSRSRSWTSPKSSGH
UniProt O43805: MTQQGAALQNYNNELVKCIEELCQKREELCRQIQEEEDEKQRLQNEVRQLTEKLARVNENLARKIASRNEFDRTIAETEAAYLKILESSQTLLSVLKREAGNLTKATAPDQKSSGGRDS
UniProt P61647: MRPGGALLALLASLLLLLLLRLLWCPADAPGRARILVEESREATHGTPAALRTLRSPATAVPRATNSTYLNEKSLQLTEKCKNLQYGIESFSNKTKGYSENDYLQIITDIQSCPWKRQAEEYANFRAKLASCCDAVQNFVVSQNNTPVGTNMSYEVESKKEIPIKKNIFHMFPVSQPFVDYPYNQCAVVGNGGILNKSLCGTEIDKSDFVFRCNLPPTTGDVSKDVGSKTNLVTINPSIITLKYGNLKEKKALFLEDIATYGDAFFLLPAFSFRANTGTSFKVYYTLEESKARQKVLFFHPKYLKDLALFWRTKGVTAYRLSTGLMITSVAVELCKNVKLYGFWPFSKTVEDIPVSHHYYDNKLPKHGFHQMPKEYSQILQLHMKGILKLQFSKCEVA
UniProt P84103: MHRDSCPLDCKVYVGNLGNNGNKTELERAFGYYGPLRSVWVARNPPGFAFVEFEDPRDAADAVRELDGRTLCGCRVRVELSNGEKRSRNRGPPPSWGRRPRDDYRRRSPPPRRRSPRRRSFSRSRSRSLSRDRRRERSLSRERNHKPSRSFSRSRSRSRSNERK
UniProt Q9NQZ5: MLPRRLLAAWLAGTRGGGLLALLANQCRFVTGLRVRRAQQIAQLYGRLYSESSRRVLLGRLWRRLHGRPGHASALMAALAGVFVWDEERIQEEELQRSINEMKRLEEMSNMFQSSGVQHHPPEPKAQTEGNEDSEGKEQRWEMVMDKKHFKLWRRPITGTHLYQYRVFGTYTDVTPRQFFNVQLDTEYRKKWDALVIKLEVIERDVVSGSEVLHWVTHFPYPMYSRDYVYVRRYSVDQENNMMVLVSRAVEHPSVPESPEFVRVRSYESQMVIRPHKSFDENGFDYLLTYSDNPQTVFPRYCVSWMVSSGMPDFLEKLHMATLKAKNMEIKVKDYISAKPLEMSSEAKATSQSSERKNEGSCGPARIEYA
UniProt Q9NP77: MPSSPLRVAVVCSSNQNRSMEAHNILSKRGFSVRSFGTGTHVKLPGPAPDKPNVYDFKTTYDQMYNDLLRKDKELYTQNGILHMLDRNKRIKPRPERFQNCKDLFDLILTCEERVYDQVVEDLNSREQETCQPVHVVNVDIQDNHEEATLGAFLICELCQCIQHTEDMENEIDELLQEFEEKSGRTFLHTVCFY
UniProt Q13586, whole entry, looked up: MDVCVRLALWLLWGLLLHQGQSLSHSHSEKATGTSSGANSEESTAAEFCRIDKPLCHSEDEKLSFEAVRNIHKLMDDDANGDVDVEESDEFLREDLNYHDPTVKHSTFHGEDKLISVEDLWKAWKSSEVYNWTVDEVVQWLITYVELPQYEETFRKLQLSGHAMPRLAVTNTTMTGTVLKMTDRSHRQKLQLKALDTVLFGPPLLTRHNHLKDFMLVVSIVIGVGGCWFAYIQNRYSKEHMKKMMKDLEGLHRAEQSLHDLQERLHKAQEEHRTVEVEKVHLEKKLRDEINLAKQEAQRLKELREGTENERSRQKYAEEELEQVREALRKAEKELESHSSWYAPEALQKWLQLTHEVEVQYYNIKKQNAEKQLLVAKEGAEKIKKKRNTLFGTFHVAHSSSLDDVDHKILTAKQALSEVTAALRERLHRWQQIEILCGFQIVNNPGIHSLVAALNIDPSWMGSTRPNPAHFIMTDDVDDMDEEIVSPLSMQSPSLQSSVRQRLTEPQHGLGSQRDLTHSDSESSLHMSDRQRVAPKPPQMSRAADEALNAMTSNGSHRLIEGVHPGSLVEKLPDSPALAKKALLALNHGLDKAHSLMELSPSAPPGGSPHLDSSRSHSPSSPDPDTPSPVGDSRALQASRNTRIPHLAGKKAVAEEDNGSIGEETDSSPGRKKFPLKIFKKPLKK
UniProt Q6ZUB1: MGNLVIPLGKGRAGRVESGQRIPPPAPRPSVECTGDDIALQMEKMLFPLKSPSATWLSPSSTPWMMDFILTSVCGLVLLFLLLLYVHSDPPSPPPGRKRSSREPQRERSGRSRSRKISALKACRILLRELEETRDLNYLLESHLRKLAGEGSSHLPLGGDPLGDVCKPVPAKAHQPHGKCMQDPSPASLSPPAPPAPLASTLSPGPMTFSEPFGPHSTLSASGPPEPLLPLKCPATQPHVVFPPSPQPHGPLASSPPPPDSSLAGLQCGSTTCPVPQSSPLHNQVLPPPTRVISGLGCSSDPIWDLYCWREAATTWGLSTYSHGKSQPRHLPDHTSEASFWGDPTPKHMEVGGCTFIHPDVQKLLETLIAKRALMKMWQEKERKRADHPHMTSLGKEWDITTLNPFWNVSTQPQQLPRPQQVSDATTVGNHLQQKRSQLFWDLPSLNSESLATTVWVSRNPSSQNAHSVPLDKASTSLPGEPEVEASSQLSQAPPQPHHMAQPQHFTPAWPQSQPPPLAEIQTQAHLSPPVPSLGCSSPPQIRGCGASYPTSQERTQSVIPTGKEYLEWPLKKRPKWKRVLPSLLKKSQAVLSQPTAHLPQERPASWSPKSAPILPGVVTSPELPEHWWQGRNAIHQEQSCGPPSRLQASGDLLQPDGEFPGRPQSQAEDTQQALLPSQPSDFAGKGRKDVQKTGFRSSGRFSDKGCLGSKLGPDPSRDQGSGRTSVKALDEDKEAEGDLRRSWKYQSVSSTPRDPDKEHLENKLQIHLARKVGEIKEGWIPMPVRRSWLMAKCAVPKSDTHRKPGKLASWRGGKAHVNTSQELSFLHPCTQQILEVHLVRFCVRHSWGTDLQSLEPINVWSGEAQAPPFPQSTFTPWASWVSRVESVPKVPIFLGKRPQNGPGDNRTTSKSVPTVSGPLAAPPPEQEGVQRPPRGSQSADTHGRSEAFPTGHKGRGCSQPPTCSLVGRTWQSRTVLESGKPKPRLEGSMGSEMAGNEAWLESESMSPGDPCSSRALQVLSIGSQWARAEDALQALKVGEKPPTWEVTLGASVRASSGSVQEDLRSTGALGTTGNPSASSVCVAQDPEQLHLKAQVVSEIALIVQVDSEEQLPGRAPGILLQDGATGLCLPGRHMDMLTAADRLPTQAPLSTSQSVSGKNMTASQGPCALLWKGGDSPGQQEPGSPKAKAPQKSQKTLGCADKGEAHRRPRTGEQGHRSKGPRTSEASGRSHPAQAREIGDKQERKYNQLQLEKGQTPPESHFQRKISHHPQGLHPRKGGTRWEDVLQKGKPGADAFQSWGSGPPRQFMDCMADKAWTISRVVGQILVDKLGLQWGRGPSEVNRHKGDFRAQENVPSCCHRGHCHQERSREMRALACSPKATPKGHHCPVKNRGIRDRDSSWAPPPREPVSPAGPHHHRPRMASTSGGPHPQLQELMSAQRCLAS
UniProt Q16385, whole entry, looked up: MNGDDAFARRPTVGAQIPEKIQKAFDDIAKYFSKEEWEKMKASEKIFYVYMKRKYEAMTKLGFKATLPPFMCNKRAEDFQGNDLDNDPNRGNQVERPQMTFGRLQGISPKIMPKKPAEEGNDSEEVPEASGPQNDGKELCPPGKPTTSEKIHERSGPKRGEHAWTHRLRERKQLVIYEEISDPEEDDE
UniProt P51571: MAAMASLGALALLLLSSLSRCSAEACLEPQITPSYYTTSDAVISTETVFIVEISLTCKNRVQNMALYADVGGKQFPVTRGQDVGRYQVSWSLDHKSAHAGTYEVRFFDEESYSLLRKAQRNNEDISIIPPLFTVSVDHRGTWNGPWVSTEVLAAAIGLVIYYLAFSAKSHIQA

The list shows a part of the results. Residues, ends and D or L forms follow the SMILES beside them. *: point of attachment. Cbz = O=C(OCc1ccccc1)*

What all share (test): log2 fold change, soluble protein after heating vs DMSO (PISA); higher = thermal stabilisation; K562 cells, 10 uM, 30 min; active = over 0.2 and 3.5 SD of the protein, either way, in both replicates (recomputed)
Compound in experiment [1]: C1COCCN1CCN2C3=CC=CC=C3N=C2NC(=O)C4=CC(=CC=C4)[N+](=O)[O-] [IRAK-1-4 Inhibitor I]
A digest of the protocol: (§1)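 Values are thermal stability changes relative to control samples and are taken from duplicates. They are stated as log2 fold changes. Before quantification by TMTpro 16plex LC-MS/MS with equalised channel sums, K562 cells at 2×10^6 cells/mL were treated with 10 μM compound for 30 min, heated in aliquots for 3 min across 48°C-58°C, pooled, extracted in PBS with 0.5% NP-40 at 4°C, and centrifuged at 21,000xg for 90 min to give the soluble supernatant.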

Compound in experiment [2]: C=CC(=O)N1CCC[C@@H](n2nc(-c3ccc(Oc4ccccc4)cc3)c3c(N)ncnc32)C1 [ibrutinib]
A digest of the protocol: as §1

Compound in experiment [3]: CC(=O)c1cnc2ccc(-c3cc(Cl)c(O)c(Cl)c3)nc2c1N[C@H]1CC[C@H](CN(C)C)CC1
In short, it runs like this: as §1

Compound in experiment [4]: CC(C)(C)Cn1c(N)nc2ccc(-c3[nH]c(C(C)(C)C)nc3-c3ccc(F)cc3)nc21 [ralimetinib]
In short, it runs like this: as §1

Compound in experiment [5]: CC(C)(O)CC(=O)NCCn1ccc2ncnc(Nc3ccc(Oc4cccc(C(F)(F)F)c4)c(Cl)c3)c21
A digest of the protocol: as §1

Compound in experiment [6]: CC(C)C1=C2N=C(C=C(N2N=C1)NCC3=CC=CC=C3)NCCCCCCN
A digest of the protocol: as §1

Compound in experiment [7]: CC(C)C[C@@H](C=O)NC(=O)[C@H](CC(C)C)NC(=O)[C@H](CC(C)C)NC(=O)OCc1ccccc1
In short, it runs like this: as §1

Compound in experiment [8]: CC(C)N(C[C@H]1O[C@@H](n2cnc3c(N)ncnc32)[C@H](O)[C@@H]1O)[C@H]1C[C@@H](CCc2nc3cc(C(C)(C)C)ccc3[nH]2)C1 [pinometostat]
A digest of the protocol: as §1

Compound in experiment [9]: CC1=C(C2=C(C=C1)C(=O)C3=CC=CC=C3N2CCCN)C
In short, it runs like this: as §1

Compound in experiment [10]: CC1=C(C(CC(=O)N1)C2=CC=C(C=C2)C(F)(F)F)C(=O)NC3=C(C=C4C(=C3)C=NN4)F
In short, it runs like this:
as §1

For the target SPPL2A (UniProt Q8TCT8), the log2 fold change in [1] was inactive: 0.015; in experiment [2] it was inactive: 0.15; in experiment [3], inactive: 0.029; in [4], inactive: -0.082; in experiment [5], inactive: -0.06; in [6], inactive: -0.061. For the same target, the log2 fold change in experiment [7] was inactive: -0.008; in experiment [8], inactive: -0.082; in [9], inactive: -0.025.
SSRP1 (UniProt Q08945): the log2 fold change is inactive: -0.044 in experiment [1]; inactive: -0.037 in experiment [2]; inactive: -0.138 in experiment [3]; inactive: -0.022 in experiment [4]; inactive: -0.008 in experiment [5]; inactive: -0.119 in experiment [6]. Also, the values for the log2 fold change in experiment [7], in [8] and in experiment [9] were inactive: 0, inactive: -0.036 and active: -0.554, respectively.
Take SPTLC1 (UniProt O15269): the log2 fold change in experiment [1] was inactive: -0.016; in experiment [2], inactive: -0.001; in experiment [3], inactive: -0.019; in [4] it was inactive: -0.012; in experiment [5] it was inactive: -0.066; in experiment [6], inactive: -0.19. The log2 fold change was inactive: 0.024 in experiment [7], inactive: 0.059 in [8], inactive: 0.072 in experiment [10] and inactive: 0.043 in experiment [9].
As for STK24 (UniProt Q9Y6E0), the log2 fold change in [1] is inactive: 0.053; in experiment [2], inactive: -0.065; in experiment [3], inactive: -0.102; in [4], inactive: -0.089; in [5], inactive: -0.044; in experiment [6], inactive: -0.023. Also, the log2 fold change in experiment [7] was inactive: -0.023; in experiment [8] it was inactive: -0.008; in [10], inactive: -0.003; in experiment [9] it was inactive: 0.024.
In the case of SRSF10 (UniProt O75494), the log2 fold change in [1] is inactive: -0.179; in experiment [2], inactive: 0.07; in experiment [3], inactive: -0.047; in experiment [4], inactive: 0.185; in experiment [5], inactive: 0.218; in [6] it was inactive: 0.002. For the same target, the log2 fold change in experiment [7] is inactive: 0.102; in experiment [8] it was inactive: 0.418; in experiment [9], inactive: -0.396.
Regarding SRRM1 (UniProt Q8IYB3), the log2 fold change in [1] was inactive: -0.152; in [2] it was inactive: 0.054; in [3] it was inactive: -0.297; in [4] it was inactive: 0.107; in [5], inactive: 0.069; in experiment [6] it was inactive: -0.121. The log2 fold change in experiment [7] was inactive: 0.09; in experiment [8] it was inactive: 0.151; in [10], inactive: 0.068; in [9], inactive: 0.066.
As to SSNA1 (UniProt O43805), the log2 fold change in [1] was inactive: -0.001; in [2] it was inactive: 0.008; in experiment [3], inactive: 0.016; in [4], inactive: -0.021; in [5], inactive: -0.034; in experiment [6] it was inactive: 0.023. Further, the log2 fold change was inactive: -0.036 in experiment [7], inactive: -0.156 in experiment [8], inactive: 0.001 in [10] and inactive: 0.01 in [9].
ST8SIA6 (UniProt P61647): the log2 fold change is inactive: 0.005 in experiment [1], inactive: -0.049 in experiment [2], inactive: -0.067 in [3] and inactive: 0.163 in experiment [8].
Take SRSF3 (UniProt P84103): the log2 fold change in experiment [1] was inactive: -0.207; in [2], inactive: 0.11; in experiment [3], inactive: -0.035; in experiment [4], inactive: 0.112; in experiment [5] it was inactive: 0.19; in experiment [6], inactive: 0.083. Also, the log2 fold change in [7] is inactive: 0.152; in [8], inactive: 0.064; in experiment [9], inactive: -0.134.
Take STARD7 (UniProt Q9NQZ5): the log2 fold change in experiment [1] is inactive: -0.012; in experiment [2], inactive: 0.055; in experiment [3], inactive: -0.026; in [4], inactive: -0.01; in experiment [5], inactive: -0.051; in [6], inactive: -0.057. The log2 fold change in experiment [7] was inactive: 0.028; in [8], inactive: -0.009; in [9], inactive: -0.003.
In the case of SSU72 (UniProt Q9NP77), the log2 fold change was inactive: -0.244 in experiment [1]; inactive: -0.144 in experiment [2]; inactive: -0.134 in [3]; inactive: -0.128 in experiment [5]; inactive: -0.299 in [6]; inactive: 0.118 in experiment [8]. Moreover, the log2 fold change in experiment [9] is inactive: -0.108.
In the case of SPIRE1 (UniProt Q08AE8), the log2 fold change was inactive: -0.065 in experiment [1]; inactive: 0.032 in [2]; inactive: 0 in [3]; inactive: 0.008 in experiment [4]; inactive: 0.073 in [5]; inactive: 0.181 in [6]. Besides, the log2 fold change in experiment [7] is inactive: 0.09; in [8] it was inactive: -0.006; in experiment [9] it was inactive: 0.029.
Turning to STIM1 (UniProt Q13586), the log2 fold change in [1] was inactive: 0.006; in experiment [2], inactive: 0.007; in experiment [3] it was inactive: -0.06; in experiment [4], inactive: -0.036; in experiment [5], inactive: -0.067; in experiment [6] it was active: -0.33. The log2 fold change in experiment [7] was inactive: 0.034; in experiment [8], inactive: -0.011; in [9], inactive: 0.067.
With SPATA31E1 (UniProt Q6ZUB1), the log2 fold change in experiment [1] is inactive: -0.003; in [2], inactive: -0.1; in experiment [3], inactive: -0.228; in experiment [4], inactive: -0.031; in experiment [7], inactive: 0.094; in experiment [8], inactive: 0.013. Besides, in experiment [10], the log2 fold change was inactive: 0.014.
SSX2 (UniProt Q16385): the log2 fold change was inactive: -0.038 in experiment [1]; inactive: -0.004 in [2]; inactive: -0.006 in experiment [3]; inactive: -0.03 in [4]; inactive: 0.022 in experiment [5]; inactive: -0.044 in experiment [6]. Further, the log2 fold change in experiment [7] is inactive: 0.123; in [8], inactive: -0.065; in experiment [9], active: -1.33.
As to STAT5A (UniProt P42229), the log2 fold change was inactive: -0.116 in [1]; inactive: -0.088 in experiment [2]; inactive: -0.164 in experiment [3]; inactive: 0.046 in experiment [4]; inactive: 0.019 in experiment [5]; inactive: -0.053 in [6]. The log2 fold change is inactive: 0.006 in experiment [7], inactive: 0.033 in experiment [8] and inactive: -0.009 in experiment [9].
In the case of SSR4 (UniProt P51571), the log2 fold change in experiment [1] was inactive: 0.003; in experiment [2], inactive: 0.032; in [3] it was inactive: -0.033; in [4], inactive: 0.049; in [5], inactive: -0.034; in experiment [6], inactive: -0.03. Also, the log2 fold change in [7] is inactive: 0.032; in experiment [8], inactive: -0.028; in experiment [9], inactive: 0.09.
